This note sets out measurements from the supplement of paper PMC10849652.

The chains behind the UniProt entries cited, without tags or fusion partners. Where a name states a change or a piece, a line headed by the entry shows the natural chain unless it says otherwise.
UniProt Q10713: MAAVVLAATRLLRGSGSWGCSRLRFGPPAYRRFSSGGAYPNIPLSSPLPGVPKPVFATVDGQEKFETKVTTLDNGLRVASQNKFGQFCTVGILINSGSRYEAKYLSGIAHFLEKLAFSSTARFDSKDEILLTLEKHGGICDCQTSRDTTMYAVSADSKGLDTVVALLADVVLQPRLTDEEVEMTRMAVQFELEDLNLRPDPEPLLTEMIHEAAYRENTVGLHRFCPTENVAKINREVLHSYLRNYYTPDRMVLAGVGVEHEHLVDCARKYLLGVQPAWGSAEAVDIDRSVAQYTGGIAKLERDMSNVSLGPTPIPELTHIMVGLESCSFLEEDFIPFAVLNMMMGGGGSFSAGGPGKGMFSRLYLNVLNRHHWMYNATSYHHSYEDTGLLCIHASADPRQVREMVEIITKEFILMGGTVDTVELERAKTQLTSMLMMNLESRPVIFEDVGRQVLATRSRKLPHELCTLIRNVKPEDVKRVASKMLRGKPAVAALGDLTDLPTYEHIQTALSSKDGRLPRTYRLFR
UniProt Q7Z3K3: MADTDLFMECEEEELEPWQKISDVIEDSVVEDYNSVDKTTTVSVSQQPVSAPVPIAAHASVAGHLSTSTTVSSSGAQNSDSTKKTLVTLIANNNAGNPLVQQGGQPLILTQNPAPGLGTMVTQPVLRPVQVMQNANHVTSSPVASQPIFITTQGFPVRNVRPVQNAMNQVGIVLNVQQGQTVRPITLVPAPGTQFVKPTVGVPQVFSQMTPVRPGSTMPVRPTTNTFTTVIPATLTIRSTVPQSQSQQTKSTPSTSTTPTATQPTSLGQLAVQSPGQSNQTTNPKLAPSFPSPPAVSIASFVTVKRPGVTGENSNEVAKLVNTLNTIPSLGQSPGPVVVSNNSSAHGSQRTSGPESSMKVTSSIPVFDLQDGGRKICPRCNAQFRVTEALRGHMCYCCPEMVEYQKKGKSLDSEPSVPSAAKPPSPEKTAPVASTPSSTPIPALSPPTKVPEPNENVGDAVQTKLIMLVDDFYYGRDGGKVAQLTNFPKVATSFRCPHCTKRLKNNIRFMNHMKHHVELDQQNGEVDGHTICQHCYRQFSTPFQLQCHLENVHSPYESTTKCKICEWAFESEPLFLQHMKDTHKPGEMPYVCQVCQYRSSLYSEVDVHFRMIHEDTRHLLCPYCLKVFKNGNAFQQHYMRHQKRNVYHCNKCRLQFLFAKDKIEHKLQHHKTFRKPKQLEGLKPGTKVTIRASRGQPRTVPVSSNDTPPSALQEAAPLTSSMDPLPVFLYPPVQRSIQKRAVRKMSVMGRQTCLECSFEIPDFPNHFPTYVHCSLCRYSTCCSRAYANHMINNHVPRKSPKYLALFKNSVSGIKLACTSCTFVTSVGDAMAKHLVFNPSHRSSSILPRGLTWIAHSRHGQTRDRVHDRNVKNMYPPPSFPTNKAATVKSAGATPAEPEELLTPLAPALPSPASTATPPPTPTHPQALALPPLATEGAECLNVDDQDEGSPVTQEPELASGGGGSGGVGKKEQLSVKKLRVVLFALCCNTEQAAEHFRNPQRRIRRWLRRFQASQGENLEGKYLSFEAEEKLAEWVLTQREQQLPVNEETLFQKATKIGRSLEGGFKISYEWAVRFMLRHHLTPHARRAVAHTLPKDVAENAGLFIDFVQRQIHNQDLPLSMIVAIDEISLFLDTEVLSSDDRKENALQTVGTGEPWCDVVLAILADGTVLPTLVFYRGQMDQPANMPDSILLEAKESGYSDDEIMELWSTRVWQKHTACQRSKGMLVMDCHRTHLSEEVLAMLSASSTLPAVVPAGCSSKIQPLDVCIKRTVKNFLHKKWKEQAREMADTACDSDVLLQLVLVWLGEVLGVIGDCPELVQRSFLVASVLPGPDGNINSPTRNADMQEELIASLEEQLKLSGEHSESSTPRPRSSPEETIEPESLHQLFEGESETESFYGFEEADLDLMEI
UniProt P54278: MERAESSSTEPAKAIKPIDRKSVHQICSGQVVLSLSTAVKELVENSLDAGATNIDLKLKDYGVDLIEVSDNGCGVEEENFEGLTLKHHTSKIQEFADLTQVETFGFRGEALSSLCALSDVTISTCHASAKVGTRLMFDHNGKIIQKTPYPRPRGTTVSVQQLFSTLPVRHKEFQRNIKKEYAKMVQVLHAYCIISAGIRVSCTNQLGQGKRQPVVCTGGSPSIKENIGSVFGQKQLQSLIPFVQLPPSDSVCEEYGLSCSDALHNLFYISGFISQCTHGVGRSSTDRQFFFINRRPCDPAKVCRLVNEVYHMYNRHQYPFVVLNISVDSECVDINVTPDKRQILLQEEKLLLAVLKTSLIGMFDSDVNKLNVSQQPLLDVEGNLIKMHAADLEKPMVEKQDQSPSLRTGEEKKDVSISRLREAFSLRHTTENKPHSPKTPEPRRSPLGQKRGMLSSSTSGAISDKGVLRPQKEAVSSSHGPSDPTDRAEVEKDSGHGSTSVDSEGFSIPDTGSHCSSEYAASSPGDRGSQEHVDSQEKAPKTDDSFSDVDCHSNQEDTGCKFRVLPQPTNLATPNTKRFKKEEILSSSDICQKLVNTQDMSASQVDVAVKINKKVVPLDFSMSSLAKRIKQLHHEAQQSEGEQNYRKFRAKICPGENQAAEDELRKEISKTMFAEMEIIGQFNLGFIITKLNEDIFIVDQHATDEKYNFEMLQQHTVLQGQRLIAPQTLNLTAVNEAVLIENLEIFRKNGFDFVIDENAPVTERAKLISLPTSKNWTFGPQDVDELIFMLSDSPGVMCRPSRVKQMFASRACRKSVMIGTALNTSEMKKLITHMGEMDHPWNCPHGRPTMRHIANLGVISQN
UniProt Q8NBL1: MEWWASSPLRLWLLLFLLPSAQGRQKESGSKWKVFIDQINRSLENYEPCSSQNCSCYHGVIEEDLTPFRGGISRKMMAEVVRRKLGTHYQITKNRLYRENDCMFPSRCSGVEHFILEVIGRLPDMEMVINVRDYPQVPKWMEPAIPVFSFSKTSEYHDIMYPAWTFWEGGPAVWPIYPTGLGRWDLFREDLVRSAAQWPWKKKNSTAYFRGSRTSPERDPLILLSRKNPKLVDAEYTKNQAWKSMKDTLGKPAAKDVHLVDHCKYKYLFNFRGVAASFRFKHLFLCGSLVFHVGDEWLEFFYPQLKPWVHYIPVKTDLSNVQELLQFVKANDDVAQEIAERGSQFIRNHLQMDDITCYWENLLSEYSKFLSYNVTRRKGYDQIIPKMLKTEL
UniProt Q8NBT0: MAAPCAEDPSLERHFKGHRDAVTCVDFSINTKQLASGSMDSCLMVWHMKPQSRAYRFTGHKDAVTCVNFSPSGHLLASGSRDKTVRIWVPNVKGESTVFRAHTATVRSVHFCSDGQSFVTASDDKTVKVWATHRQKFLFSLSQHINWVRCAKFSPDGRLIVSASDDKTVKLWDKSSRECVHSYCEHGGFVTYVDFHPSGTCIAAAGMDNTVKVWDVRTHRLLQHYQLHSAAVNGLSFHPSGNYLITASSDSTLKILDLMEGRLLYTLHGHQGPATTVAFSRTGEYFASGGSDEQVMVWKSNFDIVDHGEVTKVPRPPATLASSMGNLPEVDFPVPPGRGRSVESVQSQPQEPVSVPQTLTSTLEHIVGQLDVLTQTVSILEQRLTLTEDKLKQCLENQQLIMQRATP
UniProt Q9UKY4: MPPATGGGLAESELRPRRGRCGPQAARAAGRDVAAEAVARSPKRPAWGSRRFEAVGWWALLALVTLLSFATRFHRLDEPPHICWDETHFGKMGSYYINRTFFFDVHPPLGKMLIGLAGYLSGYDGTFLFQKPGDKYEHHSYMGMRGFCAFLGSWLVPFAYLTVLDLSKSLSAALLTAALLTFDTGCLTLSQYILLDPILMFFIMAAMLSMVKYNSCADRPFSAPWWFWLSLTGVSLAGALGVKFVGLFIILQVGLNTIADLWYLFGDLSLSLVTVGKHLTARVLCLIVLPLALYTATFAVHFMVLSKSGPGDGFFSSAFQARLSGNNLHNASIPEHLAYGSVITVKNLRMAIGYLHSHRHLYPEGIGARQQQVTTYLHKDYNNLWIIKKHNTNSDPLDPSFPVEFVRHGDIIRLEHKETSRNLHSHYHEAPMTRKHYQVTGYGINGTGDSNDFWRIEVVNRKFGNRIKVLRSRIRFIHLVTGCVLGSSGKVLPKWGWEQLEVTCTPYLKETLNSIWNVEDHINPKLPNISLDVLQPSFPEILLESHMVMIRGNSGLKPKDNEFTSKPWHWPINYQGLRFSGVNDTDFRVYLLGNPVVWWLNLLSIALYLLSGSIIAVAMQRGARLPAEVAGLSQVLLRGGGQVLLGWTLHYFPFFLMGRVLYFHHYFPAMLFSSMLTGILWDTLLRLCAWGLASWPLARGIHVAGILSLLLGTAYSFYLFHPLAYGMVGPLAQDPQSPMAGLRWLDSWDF
UniProt Q9H307: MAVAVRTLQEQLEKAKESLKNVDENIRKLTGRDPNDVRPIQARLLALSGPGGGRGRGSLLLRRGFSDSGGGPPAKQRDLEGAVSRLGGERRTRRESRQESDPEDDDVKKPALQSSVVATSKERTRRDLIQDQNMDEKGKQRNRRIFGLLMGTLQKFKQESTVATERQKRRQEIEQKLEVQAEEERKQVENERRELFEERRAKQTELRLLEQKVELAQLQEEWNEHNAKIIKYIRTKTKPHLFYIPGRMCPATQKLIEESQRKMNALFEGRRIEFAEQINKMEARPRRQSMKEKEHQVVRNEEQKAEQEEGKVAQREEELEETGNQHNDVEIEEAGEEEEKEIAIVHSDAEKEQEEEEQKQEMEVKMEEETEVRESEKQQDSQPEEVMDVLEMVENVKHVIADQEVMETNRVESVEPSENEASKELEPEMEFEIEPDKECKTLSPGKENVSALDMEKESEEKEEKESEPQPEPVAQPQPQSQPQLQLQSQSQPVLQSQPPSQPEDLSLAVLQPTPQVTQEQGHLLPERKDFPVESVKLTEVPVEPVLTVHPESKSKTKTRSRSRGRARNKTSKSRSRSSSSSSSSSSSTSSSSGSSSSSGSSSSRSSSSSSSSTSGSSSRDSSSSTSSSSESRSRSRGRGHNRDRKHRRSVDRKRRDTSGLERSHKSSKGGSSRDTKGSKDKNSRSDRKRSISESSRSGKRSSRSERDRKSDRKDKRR
UniProt Q14181: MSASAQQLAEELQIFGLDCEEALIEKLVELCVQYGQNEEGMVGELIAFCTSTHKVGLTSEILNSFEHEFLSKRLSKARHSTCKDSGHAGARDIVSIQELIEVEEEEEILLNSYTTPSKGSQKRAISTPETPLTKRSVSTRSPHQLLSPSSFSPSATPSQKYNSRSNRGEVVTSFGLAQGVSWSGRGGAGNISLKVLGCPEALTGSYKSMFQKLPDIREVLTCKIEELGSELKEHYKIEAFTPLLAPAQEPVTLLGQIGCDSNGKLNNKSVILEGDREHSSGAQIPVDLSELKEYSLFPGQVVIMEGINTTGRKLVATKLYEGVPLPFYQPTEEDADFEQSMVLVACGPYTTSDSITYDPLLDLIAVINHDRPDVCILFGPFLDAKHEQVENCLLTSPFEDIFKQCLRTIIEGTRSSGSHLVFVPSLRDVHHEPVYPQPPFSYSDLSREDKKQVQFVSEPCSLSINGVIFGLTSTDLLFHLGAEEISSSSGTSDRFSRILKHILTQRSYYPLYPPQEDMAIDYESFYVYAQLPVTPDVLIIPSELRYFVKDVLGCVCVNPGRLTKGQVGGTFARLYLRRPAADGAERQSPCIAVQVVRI

Experiment in all cases: log2 fold change, soluble protein after heating vs DMSO (PISA); higher = thermal stabilisation; K562 cells, 10 uM, 30 min; active = over 0.2 and 3.5 SD of the protein, either way, in both replicates (recomputed)
Compound in one assay: CC[C@@H]1C(=O)N(C)c2cnc(Nc3ccc(C(=O)N[C@H]4CC[C@H](N5CCN(CC6CC6)CC5)CC4)cc3OC)nc2N1C(C)C [volasertib]
The essentials:
(§1)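 Thermal stability values are relative to control samples and come from duplicates. They are expressed as log2 fold changes. For measurement, K562 cells (2×10^6 cells/mL) received 10 μM compound for 30 min, and aliquots were heated for 3 min over 48°C-58°C, pooled, and extracted at 4°C in PBS with 0.5% NP-40. Soluble protein, the supernatant after 21,000xg for 90 min, was quantified by TMTpro 16plex LC-MS/MS with equalised channel sums.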

Compound in assay [1]: CC[C@H](C)N1C=C(C2=C(C=C(C=C21)C3=CN=C(C=C3)N4CCNCC4)C(=O)NCC5=C(C=C(NC5=O)C)C)C
The essentials:
as §1

Compound in a further assay: CC[C@H](C)[C@@H](C(=O)N[C@@H]([C@@H](C)O)C(=O)N[C@@H](CC(C)C)C(=O)[C@]1(CO1)C)NC(=O)[C@H]([C@@H](C)CC)N(C)C(=O)C [epoxomicin]
In short, it runs like this:
as §1

Compound in assay [2]: CCn1c(C(=O)N(C2CC2)C2CC2)cc2c3c(ncn3C)c(Nc3cc(C)n(C)n3)nc21
In short, it runs like this:
as §1

Compound in assay [3]: CCn1cc(-c2ccnc3[nH]c(-c4cccc(CN(C)C)c4)cc23)c(-c2ccc(NC(=O)N(C)C)cc2)n1
The essentials:
as §1

Compound in assay [4]: CN(C)CC(=O)Nc1ccc2[nH]c(=O)c3ccccc3c2c1
The essentials:
as §1

Compound in another assay: CN(CCOC1=CC=C(C=C1)C[C@H]2C(=O)NC(=O)S2)C3=CC=CC=N3 (racemic) [rosiglitazone]
In short, it runs like this:
as §1

Compound in assay [5]: CN1C2=C(C3=C1C(=O)N(N=C3)CC4=CC(=CC=C4)N)SC(=C2)S(=O)C
The essentials:
as §1

Compound in assay [6]: CN1CCC(CNc2ccc3ncc(-c4cccc(OC(F)(F)F)c4)n3n2)CC1
In short, it runs like this: as §1

Compound in assay [7]: CC[C@@H]1C(=O)N(C)c2cnc(Nc3ccc(C(=O)NC4CCN(C)CC4)cc3OC)nc2N1C1CCCC1
The essentials: as §1

The other results are listed elsewhere or left out.

As to POLG (UniProt P54098), the log2 fold change was inactive: -0.068 in the assay with volasertib; inactive: -0.009 in assay [1]; inactive: -0.064 in the assay with epoxomicin; inactive: -0.046 in assay [2]; inactive: -0.051 in assay [3]; inactive: -0.056 in assay [4]. Moreover, the figures for the log2 fold change (with rosiglitazone; in assay [5]; in assay [6]) were inactive: 0.084, inactive: -0.092 and inactive: -0.11, respectively.

As for PMPCA (UniProt Q10713), the log2 fold change in [7] is inactive: 0.018; with volasertib, inactive: 0.158; in [1], inactive: 0.021; in the assay with epoxomicin, inactive: 0.029; in assay [3], inactive: -0.095; in assay [4], inactive: 0.013. Further, the log2 fold change in assay [5] was inactive: -0.124; in [6], inactive: 0.138.

Take POGZ (UniProt Q7Z3K3): the log2 fold change is inactive: -0.077 in assay [7]; inactive: -0.293 in the assay with volasertib; inactive: 0.08 with epoxomicin; inactive: -0.192 in [3]; inactive: 0.07 in [4]; inactive: 0.006 in assay [5]. Also, the log2 fold change in assay [6] was inactive: 0.063.

Consider PMS2 (UniProt P54278), for which the log2 fold change is inactive: 0.129 in assay [7]; inactive: 0.079 with epoxomicin; inactive: -0.034 in assay [2]; inactive: 0.007 in assay [4]; inactive: 0.085 in [5].

Turning to POGLUT1 (UniProt Q8NBL1), the log2 fold change in [7] was inactive: 0.007; with volasertib, inactive: -0.054; in assay [1], inactive: 0.013; in the assay with epoxomicin it was inactive: 0.012; in assay [3], inactive: 0.089; in assay [4] it was inactive: -0.083. The log2 fold change in assay [5] was inactive: 0.039; in assay [6], active: 0.26.

For POC1A (UniProt Q8NBT0), the log2 fold change in assay [7] is inactive: -0.039; in assay [4], inactive: 0.076; in the assay with rosiglitazone it was inactive: 0.088; in assay [5], inactive: -0.135.

As for POMT2 (UniProt Q9UKY4), the log2 fold change is inactive: 0.029 in assay [7]; inactive: 0.027 with volasertib; inactive: -0.033 in assay [4]; inactive: 0.034 with rosiglitazone; inactive: 0.12 in [5].

As to PNN (UniProt Q9H307), the log2 fold change in [7] was inactive: 0.248; with volasertib it was inactive: -0.039; in assay [1], inactive: -0.077; with epoxomicin, inactive: -0.07; in [3], inactive: 0.021; in assay [5] it was inactive: 0.067. Further, in assay [6], the log2 fold change was inactive: -0.042.

POLA2 (UniProt Q14181): the log2 fold change in assay [7] is inactive: -0.114; with volasertib it was active: -0.328; in assay [1] it was inactive: 0.051; with epoxomicin, inactive: 0.022; in assay [3], inactive: -0.109; in assay [4] it was inactive: 0.1. The log2 fold change in assay [5] was inactive: -0.057; in assay [6] it was inactive: -0.22.
